# Measurements taken from the supplement of paper PMC8728848.
# Some of the results follow.
# B1: 4F2hc (Homo sapiens), P08195 (protein)
# chain: WWHTGALYRIGDLQAFQGHGAGNLAGLKGRLDYLSSLKVKGLVLGPIHKNQKDDVAQTDLLQIDPNFGSKEDFDSLLQSAKKKSIRVILDLTPNYRGENSWFSTQVDTVATKVKDALEFWLQAGVDGFQVRDIENLKDASSFLAEWQNITKGFSEDRLLIAGTNSSDLQQILSLLESNKDLLLTSSYLSDSGSTGEHTKSLVTQYLNATGNRWCSWSLSQARLLTSFLPAQLLRLYQLMLFTLPGTPVFSYGDEIGLDAAALPGQPMEAPVMLWDESSFPDIPGAVSANMTVKGQSEDPGSLLSLFRRLSDQRSKERSLLHGDFHAFSAGPGLFSYIRHWDQNERFLVVLNFGDVGLSAGLQASDLPASASLPAKADLLLSTQPGREEGSPLELERLKLEPHEGLLLRFPYAA
# Experiments:
# Test in all cases: glycan array binding signal (z-score within array); higher = stronger binding
# Settings in all cases: glycan notation: IUPAC condensed, linker removed
# [1] = target: Neu5Ac(a2-6)GalNAc
# How it was run: (§1)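 Columns mapping to the same glycan were averaged after glycan names were converted to IUPAC-condensed notation. The data come from 3228 arrays in the Consortium for Functional Glycomics database, limited to those with an available protein sequence. Binding is reported as a within-array Z-score averaged across arrays of one protein sequence and across linkers.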
# [2] = target: Neu5Ac(a2-6)GalNAc(b1-4)GlcNAc
# How it was run: as §1
# [3] = target: Neu5Ac(a2-6)GlcNAc(b1-4)GlcNAc
# How it was run: as §1
# [4] = target: Neu5Ac(a2-6)GlcNAc(b1-4)GlcNAc(b1-4)GlcNAc
# How it was run: as §1
# [5] = target: Neu5Ac(a2-8)Neu5Ac
# How it was run: as §1
# [6] = target: Neu5Ac(a2-8)Neu5Ac(a2-3)Gal(b1-4)Glc
# How it was run: as §1
# [7] = target: Neu5Ac(a2-8)Neu5Ac(a2-3)[GalNAc(b1-4)]Gal(b1-4)Glc
# How it was run: as §1
# [8] = target: Neu5Ac(a2-8)Neu5Ac(a2-8)Neu5Ac
# How it was run: as §1
# [9] = target: Neu5Ac(a2-8)Neu5Ac(a2-8)Neu5Ac(a2-3)Gal(b1-4)Glc
# How it was run: as §1
# [10] = target: Neu5Ac(a2-8)Neu5Ac(a2-8)Neu5Ac(a2-3)[GalNAc(b1-4)]Gal(b1-4)Glc
# How it was run: as §1
# [11] = target: Neu5Ac(a2-8)Neu5Ac(a2-8)Neu5Ac(a2-8)Neu5Ac(a2-3)[GalNAc(b1-4)]Gal(b1-4)Glc
# How it was run: as §1
# [12] = target: Neu5Ac(b2-6)Gal(b1-4)GlcNAc
# How it was run: as §1
# [13] = target: Neu5Ac(b2-6)GalNAc
# How it was run: as §1
# [14] = target: Neu5Ac9Ac(a2-3)Gal(b1-3)GlcNAc
# How it was run: as §1
# [15] = target: Neu5Ac9Ac(a2-3)Gal(b1-4)GlcNAc
# How it was run: as §1
# [16] = target: Neu5Ac9Ac(a2-6)Gal(b1-4)GlcNAc
# How it was run: as §1
# [17] = target: Neu5Gc(a2-3)Gal(b1-3)GlcNAc
# How it was run: as §1
# [18] = target: Neu5Gc(a2-3)Gal(b1-3)[Fuc(a1-4)]GlcNAc
# How it was run: as §1
# [19] = target: Neu5Gc(a2-3)Gal(b1-4)Glc
# How it was run: as §1
# [20] = target: Neu5Gc(a2-3)Gal(b1-4)GlcNAc
# How it was run: as §1
# [21] = target: Neu5Gc(a2-3)Gal(b1-4)[Fuc(a1-3)]GlcNAc
# How it was run: as §1
# [22] = target: Neu5Gc(a2-6)Gal(b1-4)GlcNAc
# How it was run: as §1
# [23] = target: Neu5Gc(a2-6)GalNAc
# How it was run: as §1
# [24] = target: Neu5Gc(b2-6)Gal(b1-4)GlcNAc
# How it was run: as §1
binder,measurement,setting,value
B1,glycan array binding signal (z-score),[1],0.974
same,glycan array binding signal (z-score),[2],-0.846
same,glycan array binding signal (z-score),[3],-1.02
same,glycan array binding signal (z-score),[4],-0.956
same,glycan array binding signal (z-score),[5],0.293
same,glycan array binding signal (z-score),[6],-0.288
same,glycan array binding signal (z-score),[7],-0.55
same,glycan array binding signal (z-score),[8],-0.566
same,glycan array binding signal (z-score),[9],-0.234
same,glycan array binding signal (z-score),[10],-0.76
same,glycan array binding signal (z-score),[11],-0.064
same,glycan array binding signal (z-score),[12],-0.505
same,glycan array binding signal (z-score),[13],-0.341
same,glycan array binding signal (z-score),[14],-0.273
same,glycan array binding signal (z-score),[15],-0.22
same,glycan array binding signal (z-score),[16],0.921
same,glycan array binding signal (z-score),[17],-0.245
same,glycan array binding signal (z-score),[18],-0.292
same,glycan array binding signal (z-score),[19],0.574
same,glycan array binding signal (z-score),[20],0.349
same,glycan array binding signal (z-score),[21],-0.913
same,glycan array binding signal (z-score),[22],-0.991
same,glycan array binding signal (z-score),[23],0.027
same,glycan array binding signal (z-score),[24],0.919

# Quoted at random: two entries already listed
binder,measurement,setting,value
B1,glycan array binding signal (z-score),[17],-0.245
same,glycan array binding signal (z-score),[15],-0.22
